Assay results: PMC2631510
Results are given in words; binding and its absence hold for the method and conditions named. For part of these data: In cells and extracts the contact can be indirect. Some entries that bind do so weakly or less than the wild type.

Amino acid sequences for entries named in this document (tags omitted). A change or cut given only in a name is not applied to a line headed by its entry. Chains listed by the source or under a name are the forms on record and can include a tag or linker. Residues count along the entry.
UniProt Q04206: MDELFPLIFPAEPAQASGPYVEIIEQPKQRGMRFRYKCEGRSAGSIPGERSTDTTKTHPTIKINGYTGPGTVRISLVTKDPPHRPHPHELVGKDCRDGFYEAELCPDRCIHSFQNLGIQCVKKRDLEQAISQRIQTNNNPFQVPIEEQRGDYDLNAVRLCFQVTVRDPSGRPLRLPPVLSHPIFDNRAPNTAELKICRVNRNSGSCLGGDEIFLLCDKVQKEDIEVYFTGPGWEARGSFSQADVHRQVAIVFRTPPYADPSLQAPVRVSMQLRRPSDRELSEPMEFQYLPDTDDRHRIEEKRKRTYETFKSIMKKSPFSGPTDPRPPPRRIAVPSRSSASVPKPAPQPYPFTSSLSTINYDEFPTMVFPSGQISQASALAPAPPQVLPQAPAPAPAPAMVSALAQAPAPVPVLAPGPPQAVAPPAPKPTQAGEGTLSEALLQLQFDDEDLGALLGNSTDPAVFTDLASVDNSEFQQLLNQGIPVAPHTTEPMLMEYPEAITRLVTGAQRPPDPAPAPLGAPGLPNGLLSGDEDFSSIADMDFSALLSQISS
ΔNH2p65-tag mutant (in Jurkat cells) (Q04206, form named): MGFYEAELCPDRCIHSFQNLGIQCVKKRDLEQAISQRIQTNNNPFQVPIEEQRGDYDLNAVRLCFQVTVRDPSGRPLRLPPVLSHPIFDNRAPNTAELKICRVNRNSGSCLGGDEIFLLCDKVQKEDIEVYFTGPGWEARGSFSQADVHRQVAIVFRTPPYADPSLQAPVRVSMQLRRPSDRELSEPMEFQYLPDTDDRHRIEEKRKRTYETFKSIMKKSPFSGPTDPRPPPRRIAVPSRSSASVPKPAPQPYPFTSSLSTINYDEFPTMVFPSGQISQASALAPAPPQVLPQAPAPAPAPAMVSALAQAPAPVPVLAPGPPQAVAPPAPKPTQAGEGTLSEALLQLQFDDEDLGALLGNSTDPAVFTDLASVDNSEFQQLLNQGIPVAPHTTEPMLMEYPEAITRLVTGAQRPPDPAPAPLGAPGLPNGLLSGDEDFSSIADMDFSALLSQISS
UniProt P25963: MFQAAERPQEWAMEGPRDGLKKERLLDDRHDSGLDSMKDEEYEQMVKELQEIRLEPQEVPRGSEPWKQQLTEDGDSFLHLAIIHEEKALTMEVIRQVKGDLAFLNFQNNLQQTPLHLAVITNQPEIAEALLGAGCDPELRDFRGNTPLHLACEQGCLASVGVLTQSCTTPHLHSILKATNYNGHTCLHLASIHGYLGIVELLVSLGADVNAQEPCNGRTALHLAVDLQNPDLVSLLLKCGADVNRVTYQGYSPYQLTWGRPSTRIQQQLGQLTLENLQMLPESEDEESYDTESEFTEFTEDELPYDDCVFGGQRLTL
UniProt Q9Z1E3: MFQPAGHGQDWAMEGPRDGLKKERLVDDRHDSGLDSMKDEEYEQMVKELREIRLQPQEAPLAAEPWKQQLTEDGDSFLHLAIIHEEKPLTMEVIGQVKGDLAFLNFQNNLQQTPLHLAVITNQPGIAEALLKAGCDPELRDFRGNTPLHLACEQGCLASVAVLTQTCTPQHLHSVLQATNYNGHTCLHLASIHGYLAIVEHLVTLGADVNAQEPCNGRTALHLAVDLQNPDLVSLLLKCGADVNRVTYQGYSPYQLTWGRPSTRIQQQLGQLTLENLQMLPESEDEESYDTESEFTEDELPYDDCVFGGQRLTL
UniProt P19838, residues 1-433: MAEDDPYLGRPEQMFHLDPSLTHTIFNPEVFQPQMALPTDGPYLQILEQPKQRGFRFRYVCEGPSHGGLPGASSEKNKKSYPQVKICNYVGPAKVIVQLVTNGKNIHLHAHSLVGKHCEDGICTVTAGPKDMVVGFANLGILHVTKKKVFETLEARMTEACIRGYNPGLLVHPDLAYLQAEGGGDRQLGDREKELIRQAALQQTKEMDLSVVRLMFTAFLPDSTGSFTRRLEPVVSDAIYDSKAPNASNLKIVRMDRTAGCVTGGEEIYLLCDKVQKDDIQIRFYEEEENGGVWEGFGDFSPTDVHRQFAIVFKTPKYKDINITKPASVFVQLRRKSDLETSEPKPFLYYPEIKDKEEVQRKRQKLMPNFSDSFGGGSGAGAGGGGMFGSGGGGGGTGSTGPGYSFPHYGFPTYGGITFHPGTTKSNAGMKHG

How the values were obtained:
[1] = molecular target: p65wt-tag (in 3T3-p65ko cells) (UniProt Q04206); experiment: co-IP
[2] = molecular target: ΔNH2p65-tag (in 3T3-p65ko cells) (UniProt Q04206); experiment: co-IP
[3] = molecular target: IκBα (in vitro translated) (UniProt P25963); experiment: co-IP
[4] = molecular target: ΔNH2p65-tag mutant (in Jurkat cells) (UniProt Q04206); experiment: co-IP
[5] = molecular target: p65wt-tag (in vitro translated) (UniProt Q04206); experiment: native gel or EMSA; 3 μg in vitro co-translated proteins (wheat germ) with 32P-labelled HIV enhancer oligonucleotide holding two κB motifs; non-denaturing 6% polyacrylamide gel; the complexes are seen bound to DNA
[6] = molecular target: p65 D94E;D97E-tag (in vitro translated) (UniProt Q04206); experiment: as above
[7] = molecular target: IκBα, endogenous in PBLs (human (endogenous in PBLs)) (UniProt P25963); experiment: co-IP

**Q.** Which binding [1] does the source give for “IκBα, endogenous in 3T3-p65ko cells (from UniProt Q9Z1E3 1-314)” here?
**A.** binds

**Q.** And the binding [2]?
**A.** binds

**Q.** For “ΔNH2p65-tag (in vitro translated) (from UniProt Q04206 97-551) (domain or fragment)”, which binding [3] is on record?
**A.** binds

**Q.** For “IκBα, endogenous in Jurkat cells (from UniProt P25963 1-317)”, which binding [4] is on record?
**A.** binds

**Q.** How did the binding [4] turn out when “NF-κB1/p50, endogenous in Jurkat cells (from UniProt P19838 1-433)” was run?
**A.** binds

**Q.** With “endogenous p65wt (p65/RelA) in Jurkat cells (from UniProt Q04206 1-551)” as the substance, how does the binding [4] read?
**A.** binds

**Q.** With “NF-κB1/p50 (in vitro translated) (from UniProt P19838 1-433)” as the substance, how does the binding [5] read?
**A.** binds

**Q.** And the binding [6]?
**A.** binds

**Q.** For “ΔNH2p65 (amino-truncated, carboxy-terminal fragment of p65/RelA), endogenous (from UniProt Q04206 98-551) (domain or fragment)”, which binding [7] is on record?
**A.** binds
